Record: PubChem BioAssay AID743454 (Peter MacCallum Cancer Centre, 2014)
In all, the deposit lists about 18,000 reagents; this is a random part of them. Of all reagents, 450 (2.5%) got an active call. 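Single biological run; no consistent viability z cut-off exists, so the class columns, not z-scores, define the calls.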

Screen: 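Genes whose loss kills vorinostat-resistant colon cancer cells under vorinostat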 (primary screen)
Cells: human HCT116-VR colon cancer cells, selected for vorinostat resistance
Reagent: siRNA pool against human genes, 40 nM siRNA pool
Time to read-out: vorinostat for 24 h, read-out about 72 h after transfection
Challenge: vorinostat at 2.5 µM final
Detection: 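Cell viability by CellTiter-Fluor and caspase 3/7 activity by luminescence, each scaled to mock wells per plate, duplicates averaged, then robust z-scored over all plates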
Direction: viability robust z-score: higher = more viable cells than screen typical; caspase robust z-score: higher = more caspase 3/7 activity than screen typical
Call rule: 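a knock-down is a hit when classed RV1 or RV2 for lowered viability, or CA1 or CA2 for caspase activation; those lethal without drug were dropped; hits were retested singly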

| gene knocked down | viability hit class | caspase hit class | viability robust z-score | caspase robust z-score | call |
| --- | --- | --- | --- | --- | --- |
| STRA8 | no change | no change | -0.8 | 0.79 | inactive |
| DYDC1 | no change | no change | -1.23 | 0.02 | inactive |
| PCDHA1 | no change | no change | 0.02 | -0.86 | inactive |
| TRIM17 | no change | no change | -0.55 | 2.14 | inactive |
| HSPA5 | no change | no change | -2.59 | 0.14 | inactive |
| ACTR1A | no change | no change | 0.74 | 1.15 | inactive |
| AMPD2 | no change | no change | 1.38 | -0.34 | inactive |
| TK2 | no change | no change | 1.86 | -0.36 | inactive |
| RPS11 | no change | no change | -4.64 | -1.11 | inactive |
| LETM2 | no change | no change | 0.41 | 0.08 | inactive |
| CRYZ | no change | no change | 0.24 | 0.28 | inactive |
| IVL | no change | no change | -1.99 | -0.66 | inactive |
| PCDH9 | no change | no change | 2.01 | -0.24 | inactive |
| IL24 | no change | no change | -0.63 | 0.3 | inactive |
| OR10C1 | no change | no change | 2.04 | 0.34 | inactive |
| FBXO39 | no change | no change | -0.29 | -0.27 | inactive |
| USP9X | no change | no change | -0.08 | -1.02 | inactive |
| ECSIT | no change | no change | 0.32 | -0.77 | inactive |
| KRTAP13-2 | no change | CA1 (caspase activation) | -0.38 | 5.39 | active |
| PPP2R3A | no change | no change | -0.01 | 0.28 | inactive |
| MBIP | no change | no change | -3.45 | -1.17 | inactive |
| XK | no change | no change | 1.19 | -0.2 | inactive |
| SERINC2 | no change | no change | -1.04 | 2.63 | inactive |

Records above whose gene name begins with T or t (2):
| gene knocked down | viability hit class | caspase hit class | viability robust z-score | caspase robust z-score | call |
| --- | --- | --- | --- | --- | --- |
| TRIM17 | no change | no change | -0.55 | 2.14 | inactive |
| TK2 | no change | no change | 1.86 | -0.36 | inactive |
